Primary screen of a compound library

Data taken from ChEMBL document CHEMBL3988442, “University of Dundee, Small-Polar-MMV Screening Library” (2021).

Each number is a percent effect as filed. How 0% and 100% were set is not recorded. Most values in the screen are low, and negative values occur. The compounds are a random part of those screened.

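Viability assay of Plasmodium falciparum sporozoites; the read-out is not stated. The concentration is filed as 10 mM, unlikely as a test dose, so the dose is not known. Higher reads as lower viability (inferred: compounds with an IC50 in retests scored well above the rest). Strong results were mostly tested again. Of about 34,000 compounds tested this way, about 280 (0.84%) reached 50% or more in at least one test.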

| SMILES | Percent Effect |
|---|---|
| `CCNC(c1cccnc1)c1ccc(F)c(F)c1` (centres unmarked) | -4.535 |
| `Cc1cc(CN2CCN(S(=O)(=O)c3c(C)c(Cl)cc(C)c3Cl)CC2)on1` | 7.341 |
| `CCOC(C)c1noc(CN2CCN(c3nnc(C)s3)CC2)n1` (centres unmarked) | -9.769 |
| `CCN1CCN(C(C)CNC(=O)Nc2nnc(C(C)C)s2)CC1` (centres unmarked) | 7.953 |
| `CC(=O)c1ccc(CNC(=O)c2cc(C)nn2C)nc1C` | -5.867 |
| `N#Cc1c(N)nc2c(c1-c1cnc(N3CCCC3)nc1)COCC2` | -5.037 |
| `O=C(NCC1Cn2nnc(-c3ccsc3)c2CO1)c1ccc[nH]1` (centres unmarked) | -7.543 |
| `Cc1ccc(Cl)c2ccc(NC(CO)CO)nc12` | -16.54 |
| `O=C(CN1CCCNC1=O)N(Cc1ccccc1)CC(F)F` | -24.73 |
| `OC[C@H]1CCCN1c1nccc(-c2c[nH]nc2C2CCCCC2)n1` | 4.318 |
| `CC(NC(=O)COc1ccc(F)cc1)c1nnc2n1CCCCC2` (centres unmarked) | 1.28 |
| `CC[C@@H]1N(Cc2ccc(OC)cc2)CCC[C@]12CCC(=O)N2CCOC.O=C(O)C(F)(F)F` | 13.6 |
| `CC1CCC(NC(=O)Nc2ccc(CC(=O)N(C)C)cc2)CC1` (centres unmarked) | -2.875 |
| `N#Cc1cc(F)ccc1NCc1ccc(Cn2cncn2)cc1` | -11.96 |
| `CCOc1ccccc1OC1CCN(C(=O)c2cc[nH]n2)CC1` | -0.9893 |
| `COc1cccc(-c2nc(CNCCn3cccn3)cs2)c1` | -4.831 |
| `Cc1noc(C)c1C(=O)N1CCOC2(COCCN(C(C)C)C2)C1.O=C(O)C(F)(F)F` (centres unmarked) | -2.277 |
| `CC(=O)N1CCN(c2cncc(C3CCNCC3)n2)CC1.Cl` | 11.88 |
| `Cc1ccc2c(c1)CN(C(=O)c1cccnc1)C(CN(C)C)CO2.Cl` (centres unmarked) | 16.23 |
| `COc1ccc(C(=O)NCC(c2cccn2C)N2CCN(C)CC2)cc1` (centres unmarked) | 18.89 |
| `c1cnc(NCC2Cn3nnc(-c4ccoc4)c3CO2)nc1` (centres unmarked) | 11.55 |
| `CN(C)CCO[C@H]1C[C@@H](O)C12CCN(c1nccc3ccccc13)CC2` | 0 |
| `C[C@@H]1CN(C2CCCCC2)CC[C@@]1(O)C1CCOCC1` | -10.53 |
| `Cc1ccc(OCCC(=O)NC2CCc3nccn3C2)cc1` (centres unmarked) | -5.073 |
| `CCN(CC)c1ccc(C(=O)NCc2cccnc2-n2cncn2)cn1` | -33.91 |
| `O=C(c1cscn1)N1CCC2(CC1)CN(c1ccccn1)CCO2` | -6.302 |
| `Cc1noc(C)c1-c1cccc(CC2CCN(C(=O)c3cscn3)C2)n1` (centres unmarked) | 2.598 |
| `CC(=O)N1CCC[C@@H](NCc2c[nH]c3ccccc23)[C@@H]1c1ccc(C)s1.Cl` | 5.578 |
| `COCC(=O)N1CCc2ncc(Cn3cncn3)n2CC1` | 11.43 |
| `Cc1[nH]c2ccc(C(=O)N3C[C@@H](O)[C@H](N4CCOCC4)C3)cc2c1C` | 5.337 |
| `CN(CC(=O)N1CCC(COc2ccccc2)CC1)c1cnccn1` | 3.485 |
| `O=C(O)C(F)(F)F.O=C(O)C(F)(F)F.c1csc(CN2CCOCC3(CCN(C4CCOCC4)C3)C2)n1` (centres unmarked) | -11.3 |
| `CCN(C(=O)CN1CCCC1Cc1ccccc1)c1ccccc1` (centres unmarked) | 11.96 |
| `Cc1cccc(-c2nc(CN3CCCCC3Cn3cncn3)no2)c1` (centres unmarked) | -13.85 |
| `Cn1cc(C2COC3(CCN(C(=O)Cc4ccccc4)CC3)C2)cn1` (centres unmarked) | 10.63 |
| `O=C(O)C(F)(F)F.[H][C@@]12OCCC[C@]1([H])N(S(=O)(=O)CCC)C[C@@H]2N(C)Cc1ccco1` | -7.899 |
| `Cc1cc(=O)n(CC(=O)NCC2CCCO2)c(-c2cccc(Cl)c2)n1` (centres unmarked) | 1.963 |
| `CN1CCOC(C)(C(=O)Nc2nc(C(C)(C)C)cs2)C1` (centres unmarked) | 22.47 |
| `O=C(O)C(F)(F)F.O=C(O)C(F)(F)F.O=C1CC[C@]2(CC[C@@H](NC3CCOC3)CC2)N1Cc1ccncc1` (some centres unmarked) | -2.053 |
| `Cl.Cl.OC(CN1CCN(Cc2ccc(F)c(F)c2)CC1)C1CC1` (centres unmarked) | 12.16 |
| `O=C(Cc1ccsc1)N1CCN(CCOc2ccccc2)CC1` | -0.6529 |
| `Cn1nc(C2CN(C(=O)c3ccncc3)C2)c2nccnc21` | 1.57 |
| `[H][C@@]12CNC[C@]1([H])[C@H]2C(=O)N1CCN(c2ccc(OC)cc2)C(C)(C)C1` | -424.6 |
| `CN(C)C(=O)c1ccc(CNC(=O)NCCN(C)C2CCCC2)cc1` | 17.6 |
| `CCCn1cc(Cl)c(C(=O)N2C[C@@H](O)[C@H](Oc3ccccc3)C2)n1` | 6.928 |
| `CC(C)CN1CCC2(CCN(C(=O)c3ccc(F)cc3)CC2)C1=O` | 3.375 |
| `O=C(NC1CC1)c1cc2c(s1)CCN2C(=O)C1CC1` | 3.64 |
| `Cc1nc(CN2CCc3nn(C)c(=O)cc3C2)oc1C` | -9.785 |
| `CN(C)CCn1c2c(ccc1=O)CCN(C(=O)c1cccs1)CC2.O=C(O)C(F)(F)F` | 5.175 |
| `[H][C@@]12CCCN1C[C@@H](CCSC)N(Cc1cn(CC)nc1C)C2` | 4.612 |
| `O=C(O)C(F)(F)F.O=C(O)C(F)(F)F.[H][C@@]12OCCN(Cc3ccncc3)[C@@]1([H])CC[C@H]2OCC1CCCC1` | 3.657 |
| `Cl.[H][C@@]12CN(C3CCCC3)CC[C@]1([H])N(C(=O)C1CCCC1)C[C@H]2c1ccsc1` | 11.36 |
| `CCc1cc(O)nc(C2CCCN(Cc3ccncc3)C2)n1` (centres unmarked) | -8.536 |
| `O=C(c1ccc(Br)o1)N1CCN(Cc2ccc(OC(F)(F)F)cc2)CC1` | 2.952 |
| `CC(NC(=O)Cn1cccn1)c1ccc2c(c1)OCCCO2` (centres unmarked) | 16.84 |
| `C[C@@H]1CN(S(C)(=O)=O)C[C@]12CCN(Cc1cccnc1)C2=O.O=C(O)C(F)(F)F` | 4.152 |
| `Cc1nc(-c2ccc(CO)cc2)cc(C2CCNCC2)n1.Cl` | -0.7749 |
| `CC(C)C(NC(N)=O)C(=O)NCc1ccc(N2CCCC2)nc1` (centres unmarked) | 7.856 |
| `CN1CCCN(C(=O)c2nc3c(o2)CN(S(C)(=O)=O)C3)CC1` | -0.1751 |
| `OC1(c2ccccc2F)CCN(Cc2ccccc2N2CCCC2)CC1` | -6.845 |
| `CC(O)(CN1CCC(O)CC1)c1cccc(C(F)(F)F)c1` (centres unmarked) | 7.944 |
| `COc1ccc(CN(Cc2cn(C)nc2C)CC2CCCO2)c(OC)c1` (centres unmarked) | 12.59 |
| `Cc1ccc(NC2CCN(C(=O)CCC3CCCO3)CC2)nn1` (centres unmarked) | 1.443 |
| `COc1ccccc1CN(C)C(=O)NCc1c(C)cc(C)[nH]c1=O` | 4.758 |

The last 6 entries again:

{"smiles": "CN1CCCN(C(=O)c2nc3c(o2)CN(S(C)(=O)=O)C3)CC1", "Percent Effect": -0.1751}
{"smiles": "OC1(c2ccccc2F)CCN(Cc2ccccc2N2CCCC2)CC1", "Percent Effect": -6.845}
{"smiles": "CC(O)(CN1CCC(O)CC1)c1cccc(C(F)(F)F)c1", "stereo": "centres unmarked", "Percent Effect": 7.944}
{"smiles": "COc1ccc(CN(Cc2cn(C)nc2C)CC2CCCO2)c(OC)c1", "stereo": "centres unmarked", "Percent Effect": 12.59}
{"smiles": "Cc1ccc(NC2CCN(C(=O)CCC3CCCO3)CC2)nn1", "stereo": "centres unmarked", "Percent Effect": 1.443}
{"smiles": "COc1ccccc1CN(C)C(=O)NCc1c(C)cc(C)[nH]c1=O", "Percent Effect": 4.758}